# The list shows a part of the results. The main result of the screen is listed elsewhere. These columns were measured beside it and carry no call. Compounds called inactive in the main read-out are mostly missing here. The note in brackets gives the kind of curve behind each potency; many fits are weak.
# Experiment: qHTS Assay for Modulators of Lamin A Splicing
# Settings: HeLa LMNA splicing GFP/RFP minigene ratio, 48 h
# Outline: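 S3 HeLa cells stably expressing lamin A-EGFP splicing minigene plus DsRed2, 600 cells/well, 48 h compound exposure at 37C. Laser-scanning cytometry; analysed as GFP (500-530 nm)/RFP (575-640 nm) total intensity ratio; 0.5% DMSO vehicle.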
# [1] = measured here: RFP viability control channel
# [2] = measured here: GFP splicing reporter channel
Compound,AC50 [1],AC50 [2]
COc1ccc(-c2nc(Cn3c(SCc4ccc(C)cc4)nc4cccnc43)c(C)o2)cc1OC,"2 µM [rising, single point]",–
N/C(=N\S(=O)(=O)c1cc(C(F)(F)F)cc(C(F)(F)F)c1)c1ccc(Cl)cc1,"15.8 µM [falling, single point]",–
O=C(NCc1ccccc1)C1c2ccccc2Oc2ccccc21,–,"0.282 µM [rising, partial curve, poor fit]"
CCOc1cc(C)c(S(=O)(=O)Nc2ccc(F)cc2)cc1C,"17.8 µM [rising, single point]","17.8 µM [rising, partial curve]"
COc1ccc(-c2nnc(SCC(=O)Nc3ccc(Cl)cc3)s2)cc1,"0.708 µM [rising, single point]",–
Cc1cc(-c2ccccc2)nc(Oc2cccc(C(F)(F)F)c2)c1S(C)(=O)=O,"35.5 µM [rising, single point]","31.6 µM [rising, single point]"
O=C(CSc1nc(-c2ccccc2)cs1)NC(=O)NCc1ccco1,"11.2 µM [rising, partial curve, poor fit]",–
CN(C)S(=O)(=O)c1ccc2nnn(OCC(=O)NC34CC5CC(CC(C5)C3)C4)c2c1,"11.2 µM [rising, partial curve, poor fit]",–
Cc1ccsc1/C=C1\SC(=S)N(CC2CCCO2)C1=O (stereo unspecified),–,"0.562 µM [falling, full curve, poor fit]"
Cc1ccccc1-c1ccc2ncnc(NCc3cccs3)c2c1,"15.8 µM [falling, partial curve]","12.6 µM [falling, partial curve]"
Cc1ccc(S(=O)(=O)N(C)C)cc1NC(=O)CN1C(=O)NC2(CCCc3ccccc32)C1=O (stereo unspecified),"35.5 µM [rising, single point]",–
CN(C)CCC[C@@]1(c2ccc(F)cc2)OCc2cc(C#N)ccc21,"0.794 µM [falling, full curve, poor fit]",–
CCc1ccc(/C=C/C(=O)c2cc(Br)ccc(=O)c2O)cc1,"15.8 µM [rising, single point]",–
Fc1ccc(F)c(NC(=S)NCCc2ccccc2)c1,"15.8 µM [rising, partial curve]",–
COc1ccc(C(c2nnnn2C(C)(C)C)N2CCN(c3nc4ccccc4s3)CC2)cc1 (stereo unspecified),"14.1 µM [rising, single point]","14.1 µM [rising, single point]"
Cc1ccc(C(=O)NCCNc2ccc([N+](=O)[O-])cc2C(F)(F)F)cc1,"28.2 µM [rising, single point]",–
CCOC(=O)NC(=O)CSc1nc(C)cc(C)c1C#N,"12.6 µM [rising, single point]",–
OCCC1CN(Cc2ccon2)CCN1Cc1ccccc1 (stereo unspecified),–,"0.891 µM [falling, full curve, poor fit]"
Nc1n[nH]c(N)c1N=Nc1ccc(Cl)cc1Cl,"11.2 µM [rising, single point]",–

Compound,AC50 [1],AC50 [2]
Cc1cc(C)cc(N(C(=O)CCC(=O)Nc2cc(C)on2)C(C(=O)NC2CCCC2)c2ccco2)c1 (stereo unspecified),"0.0141 µM [falling, full curve, poor fit]",–
CCn1nc(C)c(/C=N/NC(=O)c2ccc3c(c2)c(C)c(C)n3Cc2ccccc2)c1C,"25.1 µM [rising, single point]",–
CCN(CC)S(=O)(=O)c1cc(C(=O)NC2CCCCC2)ccc1C,–,"14.1 µM [rising, single point]"
COc1ccc(C2(C(=O)Nc3ccc(S(N)(=O)=O)cc3)CCCC2)cc1,"35.5 µM [falling, single point]",–
Cc1ccc(S(=O)(=O)N2CCCC(CCC(=O)NCc3ccccc3F)C2)s1 (stereo unspecified),–,"35.5 µM [falling, partial curve, poor fit]"
COc1ccccc1OCCC(=O)OCC(=O)NC(=O)NC(C)(C)C,"10 µM [rising, single point]",–
Cc1ccc(CN(C(=O)COc2cccc([N+](=O)[O-])c2)c2ccccn2)cc1,–,"3.55 µM [rising, partial curve, poor fit]"
COCCn1c(C)cc(/C=C2/NC(=O)N(c3ccc(Cl)cc3)C2=O)c1C,–,"5.01 µM [rising, single point]"
O=c1oc2ccccc2cc1-c1csc(Nc2nc3c(F)cccc3s2)n1,"3.98 µM [rising, partial curve]","3.98 µM [rising, partial curve]"
CC(=O)C1=C(C)N(Cc2ccccc2)C(=O)N[C@H]1CCc1ccccc1,"22.4 µM [rising, partial curve]","11.2 µM [rising, partial curve]"
CCCN(Cc1ccccc1)C(=S)Nc1ccc(OCC)cc1,"0.0562 µM [rising, full curve, poor fit]","6.31 µM [rising, partial curve]"
O=C(NCc1nnc(SCC(=O)N2CCCc3ccccc32)o1)c1ccco1,–,"0.0708 µM [rising, full curve, poor fit]"
Cc1ccccc1C(=O)Nc1cccc(C(=O)OCc2cc(=O)n3c4c(sc3n2)CCCC4)c1,"2.82 µM [rising, full curve]",–
COCCSc1nnc(NC(=O)Cc2ccc(OC)c(OC)c2)s1,–,"0.0126 µM [rising, full curve, poor fit]"
O=C(Nc1ccc(Br)cc1)c1cccc(S(=O)(=O)Nc2cnc3ccccc3c2)c1,"10 µM [rising, partial curve]","3.16 µM [rising, full curve, poor fit]"
CN1CCCC(n2nc(Cc3ccc(Cl)cc3)c3ccccc3c2=O)CC1 (stereo unspecified),"0.001 µM [rising, full curve, poor fit]","0.01 µM [rising, full curve, poor fit]"
CCOc1ccc(C(CC(=O)O)NC(=O)c2cccs2)cc1 (stereo unspecified),–,"20 µM [falling, partial curve, poor fit]"
CN(C)S(=O)(=O)c1ccc(NC(=O)CSc2nc3ccccc3n2-c2ccccc2)cc1,"25.1 µM [rising, single point]",–
CC(=O)Nc1ncc(Cc2cccc(Cl)c2)s1,–,"7.94 µM [rising, full curve, poor fit]"

Compound,AC50 [1],AC50 [2]
O=C(CSC1=NC2(CCCCCC2)N=C1c1ccccc1)Nc1ccc2c(c1)OCCO2,"35.5 µM [rising, single point]",–
CCC/C(O)=C1\C(=O)CC(c2ccccc2)CC1=NCCc1c(C)[nH]c2ccccc12 (stereo unspecified),"28.2 µM [rising, single point]","0.0316 µM [rising, single point]"
CCOC(=O)N1CCC(Nc2cccc(SC)c2)CC1,"22.4 µM [rising, single point]","22.4 µM [rising, partial curve, poor fit]"
S=c1[nH]cnc2scc(-c3ccccc3)c12,"11.2 µM [rising, partial curve]",–
FC(F)(F)C(F)(F)C(F)(F)C(F)(F)C(F)(F)C(F)(F)C(F)(F)C(F)(F)Br,"0.708 µM [falling, partial curve, poor fit]","35.5 µM [falling, single point]"
CCN(CC)Cc1c(O)ccc2c(-c3ccccc3)cc(=O)oc12,"25.1 µM [rising, partial curve, poor fit]",–
O=C(Nc1ccccc1)c1ccc(-c2ccccc2C(F)(F)F)o1,"17.8 µM [rising, partial curve]","11.2 µM [rising, partial curve]"
c1ccc2c(c1)OCC(CNc1ncnc3nc[nH]c13)O2 (stereo unspecified),"17.8 µM [rising, partial curve]","12.6 µM [rising, single point]"
CCOc1ccc2nc(N3CCC(C(=O)N4CCN(C(=O)c5ccco5)CC4)CC3)sc2c1,"17.8 µM [rising, single point]","11.2 µM [rising, partial curve]"
CCCc1cc(-c2n[nH]c(=S)n2CC(C)C)cs1,"35.5 µM [rising, single point]",–
Cn1c(=O)c2c(ncn2CC(O)CNc2ccc(Cl)cc2)n(C)c1=O (stereo unspecified),"35.5 µM [rising, single point]",–
COc1ccccc1NS(=O)(=O)c1ccc2oc(SCc3ccc(F)cc3)nc2c1,"2.51 µM [rising, partial curve]",–
O=C(CSCC(=O)N1CCCc2ccccc21)Nc1nc(-c2ccccc2)cs1,"10 µM [rising, partial curve]","6.31 µM [rising, partial curve]"
CC(=O)OCC(=O)[C@@]1(O)[C@H](C)C[C@@H]2[C@H]3CCC4=CC(=O)C=C[C@]4(C)[C@]3(F)[C@@H](O)C[C@@]21C,"3.16 µM [rising, single point]","0.00178 µM [rising, full curve, poor fit]"
O=C(CCl)NCc1c(Cl)cccc1-n1cccc1,"35.5 µM [falling, single point]","17.8 µM [falling, single point]"
Cc1cccc(C(=O)N[C@H](C(=O)Nc2nc3ccccc3[nH]2)C(C)C)c1,"0.158 µM [falling, full curve]","5.01 µM [falling, partial curve]"
O=C(CSCc1c(F)cccc1Cl)NCc1cccnc1,"8.91 µM [rising, partial curve, poor fit]",–
O=C(Cc1ccccc1)Nc1ccccc1N1CCN(c2ccccc2)CC1,"15.8 µM [rising, single point]","11.2 µM [rising, single point]"

# Reformatted with tabs: 4 of the compounds above.
Compound	AC50 [1]	AC50 [2]
Cc1ccccc1-c1ccc2ncnc(NCc3cccs3)c2c1	15.8 µM [falling, partial curve]	12.6 µM [falling, partial curve]
S=c1[nH]cnc2scc(-c3ccccc3)c12	11.2 µM [rising, partial curve]	–
FC(F)(F)C(F)(F)C(F)(F)C(F)(F)C(F)(F)C(F)(F)C(F)(F)C(F)(F)Br	0.708 µM [falling, partial curve, poor fit]	35.5 µM [falling, single point]
Cc1cccc(C(=O)N[C@H](C(=O)Nc2nc3ccccc3[nH]2)C(C)C)c1	0.158 µM [falling, full curve]	5.01 µM [falling, partial curve]
